{
  "source": "patent US20230330093A1",
  "about": "“APPLICATION OF NITROGEN-CONTAINING SATURATED HETEROCYCLIC COMPOUND” (SHANGHAI PHARMACEUTICALS HOLDING CO., LTD., priority 2020, published 2023)",
  "system": "rhesus monkeys with spontaneous chronic kidney disease (CKD)",
  "assay": "Effect on UACR (proteinuria), 8-week oral administration",
  "assay_type": "in vivo, Macaca mulatta (Rhesus Macaque)",
  "details": "per animal + Mean ± SD",
  "experimental": "CKD-EPI rating […]-G3b, glomerular filtration rate eGFR: 30 59 ml/min/1.73 m^2; or moderate to severe increase in proteinuria (A2-A3): urine albumin/creatinine ratio (UACR)>15 mg/g-350 mg/g (4-6 hour urine collection), vs. age-matched control group 3±2 mg/g. In the trial, animals were brought in three stages. […] ELISA kit was used for NT-proBNP test. [table]",
  "key": {"[1]": {"details": "Valsartan group 2.67 mg/kg/time oral, 8 weeks"}, "[2]": {"details": "1 mg/kg oral once a day, 4 weeks"}, "[3]": {"details": "1 mg/kg oral once a day, 8 weeks"}, "[4]": {"details": "2 mg/kg oral once a day, 4 weeks"}, "[5]": {"details": "2 mg/kg oral once a day, 8 weeks"}, "[6]": {"details": "5 mg/kg oral once a day, 8 weeks"}},
  "note": "Several values for one entry are separate records, joined by “and”; a condition that tells them apart may be missing. Equal values may be shown once.",
  "data": [
    {"smiles": "CCCCC(=O)N(Cc1ccc(-c2ccccc2-c2nnn[nH]2)cc1)[C@H](C(=O)O)C(C)C", "note": "[Valsartan, reference compound]", "values": [
      {"measurement": "Cr-U", "setting": "[1]", "result": "28.20 mg/dL and 206.27 mg/dL and 95.47 mg/dL and 109.98 ± 89.92 mg/dL"},
      {"measurement": "Urine-Vol", "setting": "[1]", "result": "240 mL and 80 mL and 37 mL and 119 ± 107 mL"}
    ]},
    {"smiles": "COC(=O)NCCCn1nc([C@@H](C)N(C(=O)[C@H]2CNCCO2)C2CC2)c2ccc(C)nc21.O=C(O)C[C@H](O)C(=O)O", "note": "[malate of compound of Formula I]", "values": [
      {"measurement": "Cr-U", "setting": "[2]", "result": "30.74 mg/dL and 121.39 mg/dL and 19.36 mg/dL and 108.29 mg/dL and 16.09 mg/dL and 59.17 ± 51.32 mg/dL"},
      {"measurement": "Urine-Vol", "setting": "[2]", "result": "170 mL and 5 mL and 380 mL and 310 mL and 470 mL and 273 mL"},
      {"measurement": "Cr-U", "setting": "[3]", "result": "26.02 mg/dL and 118.23 mg/dL and 25.52 mg/dL and 290.17 mg/dL and 17.93 mg/dL and 95.57 mg/dL"},
      {"measurement": "Urine-Vol", "setting": "[3]", "result": "375 ml and 25 ml (2×) and 470 ml and 520 ml and 283 ml"},
      {"measurement": "Cr-U", "setting": "[4]", "result": "32.18 mg/dL and 157.85 mg/dL and 41.80 mg/dL and 111.58 mg/dL and 66.89 mg/dL and 82.06 ± 52.33 mg/dL"},
      {"measurement": "Urine-Vol", "setting": "[4]", "result": "330 mL and 20 mL and 320 mL and 60 mL and 85 mL and 163 mL"},
      {"measurement": "Cr-U", "setting": "[5]", "result": "53.10 mg/dL and 33.60 mg/dL and 26.33 mg/dL and 116.29 mg/dL and 32.22 mg/dL and 52.31 mg/dL"},
      {"measurement": "Urine-Vol", "setting": "[5]", "result": "77 mL and 260 mL and 420 mL and 60 mL and 265 mL and 216 mL"},
      {"measurement": "Cr-U", "setting": "[6]", "result": "52.32 mg/dL and 21.19 mg/dL and 37.25 mg/dL and 128.11 mg/dL and 16.98 mg/dL and 61.60 mg/dL and 52.91 ± 40.68 mg/dL"},
      {"measurement": "Urine-Vol", "setting": "[6]", "result": "60 mL and 400 mL and 90 mL and 25 mL and 380 mL and 115 mL and 178 ± 167 mL"}
    ]}
  ]
}
